Measurements reported in PubChem BioAssay AID652259 (Drosophila RNAi Screening Center, 2013).

Test: 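Identify new Wingless signalling regulators in fly cells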 (primary screen)
System: Drosophila clone 8 imaginal disc epithelial cells
Reagent: long dsRNA against Drosophila genes
Treatment: pathway stimulated by co-transfected Wingless expression plasmid
Measurement: 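Firefly luciferase from a tcf-site Wingless reporter, measured alongside co-transfected Renilla luciferase that tracks transfection; pathway stimulated by a Wingless plasmid; the firefly-to-Renilla ratio is not deposited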
Reading the numbers: firefly reporter light: higher = more Wg reporter light, before normalisation; Renilla control light: higher = more transfected or surviving cells
Hit rule: 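a knock-down is a candidate when at least two out of four statistical tests show it departing from its plate mean; one test alone signals a weak candidate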
Calls: active = candidate regulator (raises or lowers reporter); inactive = not a candidate
The screen tested about 22,000 reagents; this is an unselected part of those that have a named target and a result. Over the whole deposit, 233 (1.1%) got an active call. 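Light values are raw, unnormalised plate reads; the ratio scores behind the reporter calls were not deposited.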 No sequences are given here. Not given: the amount of reagent, the time to read-out, the dose of the treatment.

CG34149 [DRSC14537] → firefly reporter light, replicate 1 = 2267; firefly reporter light, replicate 2 = 4356; Renilla control light, replicate 1 = 1240; Renilla control light, replicate 2 = 1495; outcome = inactive
eIF3a [DRSC12339] → firefly reporter light, replicate 1 = 14147; Renilla control light, replicate 1 = 2061; outcome = inactive
CG7133 [DRSC11798] → firefly reporter light, replicate 1 = 7500; Renilla control light, replicate 1 = 3216; outcome = inactive
CG15515 [DRSC15054] → firefly reporter light, replicate 1 = 6653; Renilla control light, replicate 1 = 2738; outcome = inactive
CG5968 [DRSC02916] → firefly reporter light, replicate 1 = 4077; firefly reporter light, replicate 2 = 5944; Renilla control light, replicate 1 = 1178; Renilla control light, replicate 2 = 3088; outcome = inactive
Acat1 [DRSC17766] → firefly reporter light, replicate 1 = 2400; firefly reporter light, replicate 2 = 6741; Renilla control light, replicate 1 = 1200; Renilla control light, replicate 2 = 1993; outcome = inactive
Diedel3 [DRSC19544] → firefly reporter light, replicate 1 = 12370; Renilla control light, replicate 1 = 9856; outcome = inactive
Det [DRSC14489] → firefly reporter light, replicate 1 = 18496; Renilla control light, replicate 1 = 5200; outcome = inactive
Mtr4 [DRSC03560] → firefly reporter light, replicate 1 = 8739; Renilla control light, replicate 1 = 2374; outcome = inactive
subdued [DRSC15137] → firefly reporter light, replicate 1 = 1569; firefly reporter light, replicate 2 = 4493; Renilla control light, replicate 1 = 859; Renilla control light, replicate 2 = 1585; outcome = inactive
HisCl1 [DRSC14945] → firefly reporter light, replicate 1 = 7339; Renilla control light, replicate 1 = 2473; outcome = inactive
Best3 [DRSC09880] → firefly reporter light, replicate 1 = 3974; Renilla control light, replicate 1 = 2813; outcome = inactive
CG3868 [DRSC10380] → firefly reporter light, replicate 1 = 2707; Renilla control light, replicate 1 = 1181; outcome = inactive
CG13725 [DRSC10054] → firefly reporter light, replicate 1 = 6541; Renilla control light, replicate 1 = 1220; outcome = inactive
CG2656 [DRSC12584] → firefly reporter light, replicate 1 = 8272; Renilla control light, replicate 1 = 3028; outcome = inactive
CG33299 [DRSC01085] → firefly reporter light, replicate 1 = 17238; Renilla control light, replicate 1 = 7734; outcome = inactive
Sdhaf3 [DRSC15020] → firefly reporter light, replicate 1 = 21638; Renilla control light, replicate 1 = 4650; outcome = inactive
Cpr76Ba [DRSC11060] → firefly reporter light, replicate 1 = 13779; Renilla control light, replicate 1 = 2922; outcome = inactive
pdgy [DRSC19064] → firefly reporter light, replicate 1 = 4566; Renilla control light, replicate 1 = 1424; outcome = inactive
pdgy [DRSC19341] → firefly reporter light, replicate 1 = 3165; firefly reporter light, replicate 2 = 9181; Renilla control light, replicate 1 = 1308; Renilla control light, replicate 2 = 4016; outcome = inactive
or [DRSC04329] → firefly reporter light, replicate 1 = 2891; firefly reporter light, replicate 2 = 6619; Renilla control light, replicate 1 = 756; Renilla control light, replicate 2 = 2648; outcome = inactive
CG17717 [DRSC18130] → firefly reporter light, replicate 1 = 12512; Renilla control light, replicate 1 = 7138; outcome = inactive
CG11449 [DRSC11662] → firefly reporter light, replicate 1 = 16106; Renilla control light, replicate 1 = 3975; outcome = inactive
side-VI [DRSC12828] → firefly reporter light, replicate 1 = 3429; Renilla control light, replicate 1 = 1542; outcome = inactive
side-VI [DRSC12830] → firefly reporter light, replicate 1 = 4224; Renilla control light, replicate 1 = 1861; outcome = inactive
side-VI [DRSC14920] → firefly reporter light, replicate 1 = 18994; Renilla control light, replicate 1 = 4768; outcome = inactive
side-VI [DRSC15624] → firefly reporter light, replicate 1 = 17661; Renilla control light, replicate 1 = 3220; outcome = inactive

Part of the list above, limited to “firefly reporter light, replicate 1”:
CG13725 [DRSC10054]	6541
CG2656 [DRSC12584]	8272
CG33299 [DRSC01085]	17238
